Measured values published in US20250186438A1, “TREATMENT OF CLEAR CELL RENAL CELL CARCINOMA” (RACE ONCOLOGY LTD, priority 2022, published 2025).
At least one structure is not confirmed: it was looked up by name or label, or the drawing left a doubt.

System: 786-O cells
Assay: Resazurin cell viability assay, drug combinations with synergy analysis
Type: cell-based, Human
Details: 786-0 cell line; each drug in combination with zantrene; FIG. 1-3
Protocol: Cell viability was determined using a resazurin metabolic activity assay.
Resazurin is metabolised into the red-fluorescent resorufin by metabolically active cells. […] Graphpad Prism 9 software was used to generate graphs. Drug IC50 values were determined by cubic spline-lowess regression analysis using Prism 9. At least three independent replicates were performed for each cell line and each drug combination, and data is represented as mean±standard error of the mean (SEM). The culture conditions for each cell line are described below.
Detail on each of the methods is provided below.
It estimates the expected additive effect of two drugs using the fractional product of the effect of each drug alone, ie:
An observed Fa(Drug1+Drug2) value greater than the expected Fa(Drug1+Drug2) value result indicates synergy, whereas an observed Fa(Drug1+Drug2) lower than the expected value indicates antagonism. […]
Within SynergyFinder the Bliss model was used. This model quantifies the degree of synergy as the multiplicative effect of single drugs as if they acted independently. This independence model assumes a stochastic process in which two drugs elicit their effects independently, and the expected combination effect can be calculated based on the probability of independent events.

## CCN(CC)CCNC(=O)c1c(C)[nH]c(/C=C2\C(=O)Nc3ccc(F)cc32)c1C [sunitinib]
  Combination effect with zantrene, method of Webb analysis: Synergy
